For the assay, the target named is T1, FLAG-tagged CESA9 (rice) (UniProt Q69P51).
T1 sequence: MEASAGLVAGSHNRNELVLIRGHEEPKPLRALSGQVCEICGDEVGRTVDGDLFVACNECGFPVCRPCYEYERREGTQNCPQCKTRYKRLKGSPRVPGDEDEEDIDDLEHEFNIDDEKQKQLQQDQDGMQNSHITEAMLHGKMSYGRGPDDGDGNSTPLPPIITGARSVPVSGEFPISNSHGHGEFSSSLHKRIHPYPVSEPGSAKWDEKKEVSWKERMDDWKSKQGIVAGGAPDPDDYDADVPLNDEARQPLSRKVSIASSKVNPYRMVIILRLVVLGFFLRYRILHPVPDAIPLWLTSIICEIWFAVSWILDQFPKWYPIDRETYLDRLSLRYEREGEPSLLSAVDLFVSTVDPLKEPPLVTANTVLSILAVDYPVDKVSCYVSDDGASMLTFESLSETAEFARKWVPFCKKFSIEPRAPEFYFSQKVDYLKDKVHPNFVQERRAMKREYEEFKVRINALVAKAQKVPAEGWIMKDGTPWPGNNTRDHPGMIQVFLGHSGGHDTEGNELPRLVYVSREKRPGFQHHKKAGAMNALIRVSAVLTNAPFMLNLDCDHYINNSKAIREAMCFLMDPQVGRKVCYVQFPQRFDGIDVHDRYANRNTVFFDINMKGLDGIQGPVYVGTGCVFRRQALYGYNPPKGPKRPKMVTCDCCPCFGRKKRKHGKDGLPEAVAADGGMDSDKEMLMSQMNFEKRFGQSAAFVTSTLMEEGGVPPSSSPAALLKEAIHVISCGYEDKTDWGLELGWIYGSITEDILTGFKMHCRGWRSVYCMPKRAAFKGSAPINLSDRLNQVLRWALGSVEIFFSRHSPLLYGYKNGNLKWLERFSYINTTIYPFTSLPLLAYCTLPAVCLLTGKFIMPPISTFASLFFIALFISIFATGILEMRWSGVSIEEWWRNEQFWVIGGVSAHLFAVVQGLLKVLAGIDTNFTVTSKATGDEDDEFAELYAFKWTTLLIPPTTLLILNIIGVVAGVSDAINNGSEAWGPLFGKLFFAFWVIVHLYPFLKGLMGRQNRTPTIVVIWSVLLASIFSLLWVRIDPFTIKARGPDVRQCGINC
Description: co-IP; total membrane proteins from young internodes of transgenic rice expressing FLAG-CESA9, incubated with anti-FLAG M2 affinity gel overnight at 4°C; input and output blotted with anti-CESA, anti-BC1 and anti-UGPase antibodies.

These are yes or no findings as the source states them, for the method shown. In cells and extracts the contact can be indirect. Some entries that bind do so weakly or less than the wild type. Sequences can lack the tags named with a protein.

B1: Brittle Culm1 (protein, UniProt Q10JL1 23-443)
chain: YDPLDPKGNITIKWDVISWTPDGYVAMVTMSNYQMYRQILAPGWTVGWSWAKKEVIWSIVGAQATEQGDCSKFKGGIPHSCKRTPAIVDLLPGVPYNQQIANCCKAGVVSAYGQDPAGSVSAFQVSVGLAGTTNKTVKLPTNFTLAGPGPGYTCGPATIVPSTVYLTPDRRRRTQALMTWTVTCTYSQQLASRYPTCCVSFSSFYNSTIVPCARCACGCGHDGYRGNGGGGKNARAGDGRSRRNSGGGGGHSGGTECIMGDSKRALSAGVNTPRKDGAPLLQCTSHMCPIRVHWHVKLNYKDYWRAKIAITNFNYRMNYTQWTLVAQHPNLNNVTEVFSFQYKPLLPYGNINDTGMFYGLKFYNDLLMEAGPFGNVQSEVLMRKDYNTFTFSQGWAFPRKIYFNGDECKMPPPDSYPYLPN
modifications: GPI anchor at the ω-cleavage site; N-glycosylated
Consider B1, for which the binding result was “no binding”.

B2: CESA4 (enzyme, UniProt Q5JN63 1-989)
chain: MMESGVPPCAACGDDAHAACRACSYALCKACLDEDAAEGRTTCARCGGEYGAPDPAHGQGAVVEEEVEESHEPAAGGVRERVTMASQLSDHQDEGVHARTMSTHARTISSVSGVGSELNDESGKPIWKNRVESWKEKKKEKKASAKKAAAKAQAPPVEEQIMDEKDLTDAYEPLSRIIPISKNKLTPYRAVIIMRLVVLGLFFHYRITNPVYSAFGLWMTSVICEIWFGFSWILDQFPKWCPINRETYVDRLIARYGDGEDSGLAPVDFFVSTVDPLKEPPLITANTVLSILAVDYPVEKISCYVSDDGSAMLTFESLAETAEFARRWVPFCKKYSIEPRAPEFYFSQKIDYLKDKIHPSFVKERRAMKRDYEEYKVRINALVAKAQKTPEEGWIMQDGTPWPGNNPRDHPGMIQVFLGETGARDFDGNELPRLVYVSREKRPGYQHHKKAGAMNALVRVSAVLTNAPYILNLDCDHYVNNSKAVREAMCFMMDPSVGRDVCYVQFPQRFDGIDRSDRYANRNVVFFDVNMKGLDGLQGPVYVGTGCCFYRQALYGYGPPSLPALPKSSVCSWCCCCCPKKKAEKSEKEMHRDSRREDLESAIFNLREIDNYDEYERSMLISQMSFEKSFGLSSVFIESTLMENGGVPESANPSTLIKEAIHVISCGYEEKTEWGKEIGWIYGSVTEDILTGFKMHCRGWRSIYCMPIRPAFKGSAPINLSDRLHQVLRWALGSVEIFLSRHCPLWYGYGGGRLKWLQRLSYINTIVYPFTSLPLIAYCCLPAICLLTGKFIIPTLSNAATIWFLGLFISIIVTSVLELRWSGIGIEDWWRNEQFWVIGGVSAHLFAVFQGILKMIAGLDTNFTVTAKATDDTEFGELYVFKWTTVLIPPTSILVLNLVGVVAGFSDALNSGYESWGPLFGKVFFAMWVIMHLYPFLKGLMGRQNRTPTIVVLWSVLLASVFSLLWVKIDPFIGSSETTTTNSCANFDC
Take B2: the binding result is “binds”.

B3: CESA7 (enzyme, UniProt Q9AV71 1-1063)
chain: MDTASVTGGEHKGKEKTCRVCGEEVAAREDGKPFVACAECGFPVCKPCYEYERSEGTQCCPQCNTRYKRHKGCPRVEGDEDDGGDMDDFEEEFQIKSPTKQKPPHEPVNFDVYSENGEQPAQKWRPGGPALSSFTGSVAGKDLEQEREMEGGMEWKDRIDKWKTKQEKRGKLNRDDSDDDDDKNDDEYMLLAEARQPLWRKVPIPSSKINPYRIVIVLRLVVLCFFLKFRITTPAMDAVPLWLASVICELWFALSWILDQLPKWSPVTRETYLDRLALRYERDGEPCRLAPIDFFVSTVDPLKEPPIITANTVLSILAVDYPVDRVSCYVSDDGASMLLFDTLSETAEFARRWVPFCKKFTIEPRAPEFYFSQKIDYLKDKVQPTFVKERRAMKREYEEFKVRINALVAKAQKKPEEGWVMQDGTPWPGNNTRDHPGMIQVYLGSQGALDVEGSELPRLVYVSREKRPGYNHHKKAGAMNSLVRVSAVLTNAPFILNLDCDHYVNNSKAVREAMCFLMDKQLGKKLCYVQFPQRFDGIDRHDRYANRNTVFFDINMKGLDGIQGPVYVGTGTVFNRQALYGYDPPRPEKRPKMTCDCWPSWCCCCCCFGGGKRGKSHKNKKGGGGGEGGGLDEPRRGLLGFYKKRSKKDKLGGGAASLAGGKKGYRKHQRGFELEEIEEGLEGYDELERSSLMSQKSFEKRFGQSPVFIASTLVEDGGLPQGAAADPAALIKEAIHVISCGYEEKTEWGKEIGWIYGSVTEDILTGFKMHCRGWKSVYCTPARAAFKGSAPINLSDRLHQVLRWALGSVEIFMSRHCPLWYAYGGRLKWLERFAYTNTIVYPFTSIPLLAYCTIPAVCLLTGKFIIPTLNNLASIWFIALFLSIIATGVLELRWSGVSIEDWWRNEQFWVIGGVSAHLFAVFQGLLKVLGGVDTNFTVTSKAAADETDAFGELYLFKWTTLLVPPTTLIIINMVGIVAGVSDAVNNGYGSWGPLFGKLFFSFWVILHLYPFLKGLMGRQNRTPTIVVLWSILLASIFSLVWVRIDPFIPKPKGPVLKPCGVSC
Regarding B3, the binding result is on record as “binds”.
